# Data as given in PubChem BioAssay AID1224830 (NIAID, 2016).
# Assay: 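Host factors that control LPS-induced TNF expression in human macrophages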 (primary screen)
# Cells: human THP-1 monocytic leukaemia cells, TNF dual-luciferase reporter clone, PMA-differentiated to macrophage-like cells
# Reagent: siRNA pool against human genes, 50 nM
# Duration: LPS for 4 h, given about 3 days after siRNA transfection
# Treatment: bacterial LPS (TLR4 ligand), 10 ng/ml
# Measurement: 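Ratio of firefly to renilla light, scaled to the plate median and expressed as a robust z-score per replicate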
# Scale: TNF reporter robust z-score: higher = stronger TNF reporter response to LPS
# Rule for the call: 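Each well counts as active if its z-score is over 2.8 or under -1.5; controls are left without a call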
# In all, the deposit lists about 18,000 reagents; this is an unselected part. About 2,900 of them (16%) count as active. 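Calls are made per well; low scores hint the gene aids the LPS response, high scores that it dampens it.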 A number with no mark means an inactive call. Repeated entries: four replicate wells of each siRNA pool.
target gene,TNF reporter robust z-score
LINC02915 (long independently transcribed non-coding RNA 2915),-1
LINC02915 (long independently transcribed non-coding RNA 2915),-0.14
LINC02915 (long independently transcribed non-coding RNA 2915),0.2
LINC02915 (long independently transcribed non-coding RNA 2915),-0.3
ERG (ETS transcription factor ERG),-1.51 (active)
ERG (ETS transcription factor ERG),-0.9
ERG (ETS transcription factor ERG),-1.43
ERG (ETS transcription factor ERG),-1.26
FNDC8 (fibronectin type III domain containing 8),-0.51
FNDC8 (fibronectin type III domain containing 8),-0.08
FNDC8 (fibronectin type III domain containing 8),-1.32
FNDC8 (fibronectin type III domain containing 8),-0.58
SKIL (SKI like proto-oncogene),-0.67
SKIL (SKI like proto-oncogene),0.05
SKIL (SKI like proto-oncogene),-0.14
SKIL (SKI like proto-oncogene),-0.36
CLNK (cytokine dependent hematopoietic cell linker),0.26
CLNK (cytokine dependent hematopoietic cell linker),0.9
CLNK (cytokine dependent hematopoietic cell linker),-0.29
CLNK (cytokine dependent hematopoietic cell linker),1.42
PAH (phenylalanine hydroxylase),-0.1
PAH (phenylalanine hydroxylase),-0.47
PAH (phenylalanine hydroxylase),-0.46
PAH (phenylalanine hydroxylase),0.19
SPANXN4 (SPANX family member N4),-1.33
SPANXN4 (SPANX family member N4),-0.87
SPANXN4 (SPANX family member N4),-1.25
SPANXN4 (SPANX family member N4),-1.18
KIF13B (kinesin family member 13B),1.15
KIF13B (kinesin family member 13B),0.91
KIF13B (kinesin family member 13B),0.82
KIF13B (kinesin family member 13B),1.63
ZC3H4 (zinc finger CCCH-type containing 4),-0.66
ZC3H4 (zinc finger CCCH-type containing 4),-0.59
ZC3H4 (zinc finger CCCH-type containing 4),-0.97
ZC3H4 (zinc finger CCCH-type containing 4),-0.94
FLNA (filamin A),0.31
FLNA (filamin A),0.94
FLNA (filamin A),0.46
FLNA (filamin A),1.61
THBS4 (thrombospondin 4),-0.58
THBS4 (thrombospondin 4),0.01
THBS4 (thrombospondin 4),-0.23
THBS4 (thrombospondin 4),-1.39
"PIN1 (peptidylprolyl cis/trans isomerase, NIMA-interacting 1)",-0.29
"PIN1 (peptidylprolyl cis/trans isomerase, NIMA-interacting 1)",0.05
"PIN1 (peptidylprolyl cis/trans isomerase, NIMA-interacting 1)",0.75
"PIN1 (peptidylprolyl cis/trans isomerase, NIMA-interacting 1)",0.11
STK38L (serine/threonine kinase 38 like),-0.61
STK38L (serine/threonine kinase 38 like),2.41
STK38L (serine/threonine kinase 38 like),1.57
STK38L (serine/threonine kinase 38 like),0.97
ILF2 (interleukin enhancer binding factor 2),1.48
ILF2 (interleukin enhancer binding factor 2),2.13
ILF2 (interleukin enhancer binding factor 2),1.83
ILF2 (interleukin enhancer binding factor 2),1.65
EFCAB3 (EF-hand calcium binding domain 3),0.31
EFCAB3 (EF-hand calcium binding domain 3),0.81
EFCAB3 (EF-hand calcium binding domain 3),-0.01
EFCAB3 (EF-hand calcium binding domain 3),0.93
RETN (resistin),0.3
RETN (resistin),2.26
RETN (resistin),1.2
RETN (resistin),2.41
ATP2A2,-0.48
ATP2A2,-0.29
ATP2A2,-0.81
ATP2A2,-0.15
OR2H1 (olfactory receptor family 2 subfamily H member 1),1.2
OR2H1 (olfactory receptor family 2 subfamily H member 1),0.56
OR2H1 (olfactory receptor family 2 subfamily H member 1),0.68
OR2H1 (olfactory receptor family 2 subfamily H member 1),-0.91
UNK (unk zinc finger),1.97
UNK (unk zinc finger),0.02
UNK (unk zinc finger),1.36
UNK (unk zinc finger),5.11 (active)

Already shown: entries from further up.
target gene,TNF reporter robust z-score
SKIL (SKI like proto-oncogene),-0.36
CLNK (cytokine dependent hematopoietic cell linker),0.26
CLNK (cytokine dependent hematopoietic cell linker),0.9
CLNK (cytokine dependent hematopoietic cell linker),-0.29
CLNK (cytokine dependent hematopoietic cell linker),1.42
PAH (phenylalanine hydroxylase),-0.1
PAH (phenylalanine hydroxylase),-0.47
PAH (phenylalanine hydroxylase),-0.46
PAH (phenylalanine hydroxylase),0.19
SPANXN4 (SPANX family member N4),-1.33
